Reference: patent EP0422134B1, “5-HT SELECTIVE AGENTS” (ABBOTT LABORATORIES, priority 1988, dated 1990)
Structures can show the parent of a compound that is named as a salt.

Tested on: 5-HT1
Experiment: Radioligand binding, tritiated 5-HT, rat frontal cortex homogenate (total 5-HT1)
Details: Hill plot of tritiated 5-HT displacement
Description: Male Sprague-Dawley rats (150-200 g) were sacrificed and the brains were rapidly removed and placed on ice. The frontal cortext, including the portion immediately above the striatum and part of the parietal cortex were dissected. Tissues from 6-10 rats were pooled and homogenized in at least 40 volumes of tris-HCI buffer (0.05 M, pH 7.4) using a Brinkman Polytron (setting 5 for 20 seconds). This homogenate was centrifuged (48,000 G for 10 minutes), the pellet resuspended, and the process repeated three more times. Between the second and third washes, the tissue homogenate was incubated for 10 minutes at 37°C. The final pellet was resuspended in 100 volumes of TRIS buffer for use in the binding assay.
Radioligand binding affinity for subtypes of the serotonin receptor was determined by the method of Pedigo, Yamamura, and Nelson, op. cit. Tissue homogenate (0.5 mL) from rat frontal cortex, together with various concentrations of tritiated 5-HT and test compounds were added to glass tubes containing modified tris-HCI buffer to obtain, in each case, a final volume of 2 mL and having the following compositions: 5.7 mM ascorbate, 10 micromolar pargyline, 4mM CaCl2, 50 mM TRIS buffer; pH 7.4 at 37°C.
Each mixture was incubated for 15 minutes at 37°C and then vacuum filtered through Whatman GF/B filters followed by three 5 mL washes with cold TRIS buffer. Radioactivity was extracted overnight in 3 mL of scintillation liquid and measured by liquid scintillation spectrometry (50% efficiency).
Binding parameters for saturation and drug displacement studies were calculated by Scatchard analysis and from Hill plots, respectively.

First: Br.O=C(NCCN1CC2Cc3cccc(O)c3C2C1)c1ccc(F)cc1 (stereo not shown) [Example 19, 4-Hydroxy-2-(2-(4-fluorobenzamido)ethyl)-1,2,3,3a,8,8a-hexahydroindeno[1,2-c]pyrrole hydrobromide]
Second: COc1cccc2c1C1CCN(CCCCN3C(=O)CC4(CCCC4)CC3=O)CC1C2 (stereo not shown) [Example 44, hydrochloride]
The “Hill Slope” value of the first is lower: 0.33 for the first, 0.46 for the second.

Going from `COc1cccc2c1C1CN(C[C@H]3COc4ccccc4O3)CC1C2` (stereo partly drawn) [Example 31, 2S-(1,4-benzodioxanyl-2-methyl)-4-methoxy-1,2,3,3a,8,8a-hexahydroindeno[1,2-c]pyrrole hydrochloride] to `COc1cccc2c1C1CN(CCCCN3C(=O)CC(C)(C)CC3=O)CC1C2` (stereo not shown) [Example 23, 2-(4-(3,3-dimethyl)glutarimidyl)butyl-4-methoxy-1,2,3,3a,8,8a-hexahydroindeno-[1,2-c]pyrrole hydrochloride], the “Hill Slope” value rises from 0.445 to 0.455.

First: COc1cccc2c1[C@H]1CCN(CCCN3C(=O)c4ccccc4S3(=O)=O)C[C@@H]1C2 (relative stereo) [Example 56, trans-2(3-(2-(1,2-benzisothiazolin-3-one-1,1-dioxyde))propyl)-5-methoxy-2,3,4,4a,9,9a-hexahydro-1 H-indeno[2,1-c]pyridine hydrochloride]
Second: COc1cccc2c1C1CN(CCCCN3C(=O)c4ccccc4S3(=O)=O)CC1C2 (stereo not shown) [Example 21, 4-Methoxy-2-(4-(2-(1,2-benzisothiazolin-3-one1,1-dioxide))butyl)1,2,3,3a,8,8a-hexahydroindeno-[1,2-c]pyrrole hydrochloride]
The “Hill Slope” value of the first is lower: 0.369 for the first, 0.546 for the second.

Compared with `O=C1CC2(CCCC2)CC(=O)N1CCCN1CC2Cc3cccc(O)c3C2C1` (stereo not shown) [Example 27, 2-(3-(3,3-tetramethylene)glutarimidyl)propyl-4-hydroxy-1,2,3,3a,8,8a-hexahydroindeno[1,2-c]pyrrole hydrobromide], `COc1cccc2c1C1CCN(CCNC(=O)c3ccc(F)cc3)CC1C2` (stereo not drawn) [Example 58, trans-2-(2-(4-fluorobenzamido)ethyl)-5-methoxy-2,3,4,4a,9.9a-hexahydro-1H-indeno[2,1-c]pyridine hydrochloride] is higher in “Hill Slope” value: 0.38 for the first, 0.394 for the second.

First: O=C1c2ccccc2S(=O)(=O)N1CCCCN1CC2Cc3cccc(O)c3C2C1 (stereo not shown) [Example 22, 4-Hydroxy-2-(4-(2-(1.2-benzisothiazolin-3-one-1,1-dioxide))butyl)-1,2,3,3a,8,8a-hexahydroindeno-[1,2-c]pyrrole hydrochloride]
Second: COc1c(Cl)ccc2c1C1CN(CCCCN3C(=O)CC4(CCCC4)CC3=O)CC1C2 (stereo not shown) [Example 8, 2-(4-(3,3-tetramethylene)glutarimidyl)butyl-5-chroro-4-methoxy-1,2,3,3a,8,8a-hexahydroindeno[1,2-c] pyrrole hydrochloride]
The “Hill Slope” value of the first is higher: 0.463 for the first, 0.41 for the second.

Going from `COc1cccc2c1C1CN(CCCCN3C(=O)C4C5C=CC(C6C=CC65)C4C3=O)CC1C2` (stereo not shown) [Example 54, 4-Methoxy-2-(4-(3a,4,4a,6a,7,7a-hexahydro-4,7-etheno-1H-cyclobut[flisoindol-1,3-dionyl)-butyl)-1,2,3,3a,8,8a-hexahydroindeno-[1,2-c]pyrrole hydrochloride] to `COc1cccc2c1C1CN(CCCCCN3C(=O)CC4(CCCC4)CC3=O)CC1C2` (stereo not shown) [Example 28, 2-(5-(3,3-tetramethylene)glutarimidyl)pentyl-4-methoxy-1,2,3,3a,8,8a-hexahydroindeno[1,2-c]pyrrole hydrochloride], the “Hill Slope” value rises from 0.33 to 0.62.

First: COc1cccc2c1C1CN(CCCN3C(=O)CC4(CCCC4)CC3=O)CC1C2 (stereo not shown) [Example 26, 2-(3-(3,3-tetramethylene)glutarimidyl)propyl-4-methoxy-1,2,3,3a,8,8a-hexahydroindeno[1,2-c]pyrrole hydrochloride]
Second: COc1cccc2c1C1CN(C/C=C/CN3C(=O)CC4(CCCC4)CC3=O)CC1C2 (stereo not drawn) [Example 30, 2-(4-(3,3-tetramethylene)glutarimidyl)-trans-but-2-enyl-4-methoxy-1,2,3,3a,8,8a-hexahydroindeno [1,2-c]pyrrole hydrochloride]
The “Hill Slope” value of the first is higher: 0.56 for the first, 0.37 for the second.

First: COc1cccc2c1[C@H]1CCN(CCCN3C(=O)CC4(CCCC4)CC3=O)C[C@@H]1C2 (relative stereo) [Example 50, trans-2-(3-(3,3-tetramethylene)glutarimidyl)propyl-5-methoxy-2,3,4,4a,9,9a-hexahydro-1 H-indeno [2,1-c]pyridine hydrochloride]
Second: 4-Methoxy-2-(4-(3aα,4a,5,6,7aα-hexahydro-4,7-methano-1H-isoindol-1,3(2H)-dionyl)-butyl)-1,2,3,3a, 8,8a-hexahydroindeno[1,2-c]pyrrole hydrochloride [Example 55]
The “Hill Slope” value of the first is higher: 0.45 for the first, 0.35 for the second.

Compared with `O=C1CC2(CCCC2)CC(=O)N1CCCCN1CC2Cc3cccc(O)c3C2C1` (stereo not shown) [Example 20, 2-(4-(3,3-tetramethylene)glutarimidyl)butyl-4-hydroxy-1,2,3,3a,8,8a-hexahydroindeno[1,2-c]pyrrole hydrobromide], `COc1cccc2c1C1CN(C/C=C\CN3C(=O)CC4(CCCC4)CC3=O)CC1C2` (stereo not drawn) [Example 29, 2-(4-(3,3-tetramethylene)glutarimidyl)-cis-but-2-enyl-4-methoxy-1,2,3,3a,8,8a-hexahydroindeno [1,2-c] pyrrole hydrochloride] is higher in “Hill Slope” value: 0.448 for the first, 0.62 for the second.

Compared with `COc1cccc2c1[C@H]1CCN(CCCCN3C(=O)c4ccccc4S3(=O)=O)C[C@@H]1C2` (relative stereo) [Example 57, trans-2(4-(2-(1,2-benzisothiazolin-3-one-1,1-dioxyde))butyl)-5-methoxy-2,3,4,4a,9,9a-hexahydro-1H-indeno[2,1-c]pyridine hydrochloride], `COc1cccc2c1C1CN(CCCCN3C(=O)CC4(CCCC4)CC3=O)CC1C2` (stereo not shown) [Example 7, 2-(4-(3,3-tetramethylene)glutarimidyl)butyl-4-methoxy-1,2,3,3a,8,8a-hexahydoindeno[1,2-c]pyrrole hydrochloride] is lower in “Hill Slope” value: 0.618 for the first, 0.265 for the second.

First: COc1cccc2c1C1CN(C[C@@H]3COc4ccccc4O3)CC1C2 (stereo partly drawn) [Example 32, 2R-(1,4-benzodioxanyl-2-methyl)-4-methoxy-1,2,3,3a,8,8a-hexahydroindeno[1,2-c]pyrrole hydrochloride]
Second: COc1cccc2c1[C@H]1CCN(CCCCN3C(=O)CC4(CCCC4)CC3=O)C[C@@H]1C2 (relative stereo) [Example 51, trans-2-(4-(3,3-tetramethylene)glutarimidyl)butyl-5-methoxy-2,3,4,4a,9,9a-hexahydro-1H-indeno [2,1-c] pyridine hydrochloride]
The “Hill Slope” value of the first is higher: 0.539 for the first, 0.26 for the second.

First: COc1cccc2c1C1CCN(CCCN3C(=O)CC4(CCCC4)CC3=O)CC1C2 (stereo not drawn) [Example 43, cis-2-(3-(3,3-tetramethylene)glutarimidyl)propyl-5-methoxy-2,3,4,4a,9,9a-hexahydro-1H-indeno[2,1-c] pyridine hydrochloride]
Second: O=C1CC2(CCCC2)CC(=O)N1CCCCN1CC2Cc3ccc(Cl)c(O)c3C2C1 (stereo not shown) [Example 52, 2-(4-(3,3-Tetramethylene)glutarimidyl)butyl-5-chloro-4-hydroxy-1,2,3,3a,8,8a-hexahydroindeno[1,2-c]-pyrrole hydrobromide]
The “Hill Slope” value of the first is higher: 0.39 for the first, 0.34 for the second.

For `COc1cccc2c1C1CN(CCCCN3C(=O)c4ccccc4C3=O)CC1C2` (stereo not shown) [Example 24, 4-Methoxy-2-(4-(2-phthalimido)butyl)-1,2,3,3a,8,8a-hexahydroindeno[1,2-c]pyrrole hydrochloride], the “Hill Slope” value was 0.563.
